# The supplement of paper PMC8090911
# Counter-ions that a name gives are not always drawn. The list shows a part of the results. Many values rest on one well or one pass, so single values are uncertain.
# System: p95-ErbB2-MCF7
# Assay: perinuclear lysosome accumulation (PNLA, size of LAMP2 puncta), robust Z-score vs plate median; higher = more perinuclear lysosome accumulation (reversal of invasive lysosome distribution)
# Details: 5 µM; 24 h
row,SMILES,perinuclear lysosome accumulation
1,CNS(=O)(=O)Cc1ccc2[nH]cc(CCN(C)C)c2c1 [Sumatriptan succinate],-1.13
2,NS(=O)(=O)c1cc2c(cc1Cl)N=CNS2(=O)=O [Chlorothiazide],1.22
3,CCOc1ccccc1OCC1CNCCO1 (configuration not stated) [Viloxazine hydrochloride],-1.35
4,CC[C@H]1OC(=O)[C@H](C)[C@@H](O[C@H]2C[C@@](C)(OC)[C@@H](O)[C@H](C)O2)[C@H](C)[C@@H](O[C@@H]2O[C@H](C)C[C@H](N(C)C)[C@H]2O)[C@](C)(OC)C[C@@H](C)C(=O)[C@H](C)[C@@H](O)[C@]1(C)O [Clarithromycin],0.0472
5,CCCCOC(=O)c1ccc(N)cc1 [Butamben],-1
6,N=C(N)NC(=O)c1nc(Cl)c(N)nc1N [Amiloride hydrochloride dihydrate],0.243
7,O=C1NCN(c2ccccc2)C12CCN(CCCC(c1ccc(F)cc1)c1ccc(F)cc1)CC2 [Fluspirilen],4.32
8,CC(C)(C)C(=O)OCOC(=O)[C@@H]1N2C(=O)[C@@H](NC(=O)[C@H](N)c3ccccc3)[C@H]2SC1(C)C [Pivampicillin],-1.2
9,O=P(O)(O)C(Cl)(Cl)P(=O)(O)O [Clodronate],-0.657
10,CCCCOc1cc(C(=O)NCCN(CC)CC)c2ccccc2n1 [Dibucaine],-0.454
11,CCS(=O)(=O)CCn1c([N+](=O)[O-])cnc1C [Tinidazole],-1.12
12,O=C1CCc2cc(OCCCCc3nnnn3C3CCCCC3)ccc2N1 [Cilostazol],1.04
13,CCC1=C(C)CN(C(=O)NCCc2ccc(S(=O)(=O)NC(=O)N[C@H]3CC[C@H](C)CC3)cc2)C1=O [Glimepiride],-2.09
14,CC1(C)NC(=O)N(c2ccc([N+](=O)[O-])c(C(F)(F)F)c2)C1=O [Nilutamide],-0.0203
15,COC(=O)[C@@H]1[C@H]2C[C@H]3c4[nH]c5ccccc5c4CCN3C[C@@H]2CC[C@@H]1O [Yohimbine hydrochloride],-1.15
16,CCCCC(CC)CNC(=N)NC(=N)NCCCCCCNC(=N)NC(=N)NCC(CC)CCCC (configuration not stated) [Alexidine dihydrochloride],2.12
17,COc1ccc2cc([C@@H](C)C(=O)O)ccc2c1 [(R) -Naproxen sodium salt],1.11
18,Nc1nc(=O)c2c([nH]1)NC[C@@H](CNc1ccc(C(=O)N[C@@H](CCC(=O)O)C(=O)O)cc1)N2C=O [Folinic acid calcium salt],-1.12
19,CCn1cc(C(=O)O)c(=O)c2cnc(N3CCCC3)nc21 [Piromidic acid],-0.305
20,O=S(=O)(O)CCS [Mesna],-1.52
21,O=C(O)c1cc(-c2ccc(F)cc2F)ccc1O [Diflunisal],0.966
22,CCCCNC(=O)NS(=O)(=O)c1ccc(C)cc1 [Tolbutamide],-0.326
23,CC(=O)[C@H]1CC[C@H]2[C@@H]3C[C@H](C)C4=CC(=O)CC[C@]4(C)[C@H]3[C@@H](O)C[C@]12C [Medrysone],-0.995
24,OCc1cc(C(O)CNCCCCCCOCCCCc2ccccc2)ccc1O (configuration not stated) [Salmeterol],0.941
25,O=C(O)Cc1sc(-c2ccccc2)nc1-c1ccc(Cl)cc1 [Fentiazac],0.313
26,Cc1nc2n(c(=O)c1CCN1CCC(c3noc4cc(F)ccc34)CC1)CCCC2 [Risperidone],-0.624

row,SMILES,perinuclear lysosome accumulation
1,CNCCC(Oc1ccc(C(F)(F)F)cc1)c1ccccc1 (configuration not stated) [Fluoxetine hydrochloride],-3.09
2,CC1CS(=O)(=O)CCN1/N=C/c1ccc([N+](=O)[O-])o1 (configuration not stated) [Nifurtimox],-0.556
3,CN1[C@@H](CC(=O)c2ccccc2)CCC[C@H]1C[C@H](O)c1ccccc1 [Lobeline alpha (-) hydrochoride],-0.709
4,c1ccc2[nH]c(-c3cscn3)nc2c1 [Tiabendazole],-0.339
5,CCOC(=O)C1=C[C@]2(CC)CCCN3CCc4c(n1c1ccccc41)[C@@H]32 [Vinpocetine],-0.306
6,Cc1cccc(CN2CCN(C(c3ccccc3)c3ccc(Cl)cc3)CC2)c1 (configuration not stated) [Meclozine dihydrochloride],-3.18
7,O=C(O)CCC(=O)Nc1ccc(S(=O)(=O)Nc2nccs2)cc1 [Succinylsulfathiazole],-0.478
8,COc1cnc(NS(=O)(=O)c2ccc(N)cc2)nc1 [Sulfameter],0.284
9,CCCCC(C)(O)C/C=C/[C@H]1[C@H](O)CC(=O)[C@@H]1CCCCCCC(=O)OC (mixture of isomers) [Misoprostol],-0.71
10,CNCCC(Oc1ccccc1OC)c1ccccc1 (configuration not stated) [Nisoxetine hydrochloride],-0.847
11,COc1ccccc1O [Guaiacol],-0.0556
12,CC(=O)N(CC(C)C(=O)O)c1c(I)cc(I)c(N)c1I (configuration not stated) [Iocetamic acid],-1.12
13,CN(C)[C@@H]1C(O)=C(C(N)=O)C(=O)[C@@]2(O)C(O)=C3C(=O)c4c(O)ccc(Cl)c4[C@@](C)(O)[C@H]3C[C@@H]12 [Chlortetracycline hydrochloride],-0.667
14,C[C@]12CC[C@@H]3c4ccc(O)cc4CC[C@H]3[C@@H]1CCC2=O [Estrone],0.0247
15,COc1ccc2[nH]c([S+]([O-])Cc3ncc(C)c(OC)c3C)nc2c1 (configuration not stated) [Omeprazole],-0.877
16,Cc1ccccc1N1C(=O)c2cc(S(N)(=O)=O)c(Cl)cc2NC1C (configuration not stated) [Metolazone],1.26
17,Cc1cc(-n2c(=O)[nH]c(=O)n(C)c2=O)ccc1Oc1ccc(SC(F)(F)F)cc1 [Toltrazuril],0.0425
18,C=CC1=C(C(=O)O)N2C(=O)[C@@H](NC(=O)/C(=N\OCC(=O)O)c3csc(N)n3)[C@H]2SC1 [Cefixime],-1.38
19,OCCOCCN1CCN(C(c2ccccc2)c2ccc(Cl)cc2)CC1 (configuration not stated) [Hydroxyzine dihydrochloride],1.61
20,CN(C)CCCO[C@@H]1[C@H]2OC(C)(C)O[C@H]2O[C@@H]1[C@H](O)CO [Amiprilose hydrochloride],0.535
21,C[C@]12CC[C@@H]3c4ccc(O)cc4CC[C@H]3[C@@H]1C[C@@H](O)[C@@H]2O [Estriol],0.177
22,CC[N+](CC)(CC)CCC(O)(c1ccccc1)C1CCCCC1 (configuration not stated) [Tridihexethyl chloride],0.51
23,CCc1cccc2c3c([nH]c12)C(CC)(CC(=O)O)OCC3 (configuration not stated) [Etodolac],0.363
24,Cc1noc(NS(=O)(=O)c2ccc(N)cc2)c1C [Sulfisoxazole],0.224
25,CC(Oc1c(Cl)cccc1Cl)C1=NCCN1 (configuration not stated) [Lofexidine],-1.68
26,CC1=C(CC(=O)O)c2cc(F)ccc2/C1=C\c1ccc([S+](C)[O-])cc1 (configuration not stated) [Sulindac],0.234

# Some of the entries above in a different format.
row	SMILES	perinuclear lysosome accumulation
8	COc1cnc(NS(=O)(=O)c2ccc(N)cc2)nc1 [Sulfameter]	0.284
9	CCCCC(C)(O)C/C=C/[C@H]1[C@H](O)CC(=O)[C@@H]1CCCCCCC(=O)OC (mixture of isomers) [Misoprostol]	-0.71

# (next part)

row,SMILES,perinuclear lysosome accumulation
1,CCOC(=O)[C@H](CCc1ccccc1)N[C@@H](C)C(=O)N1CCC[C@H]1C(=O)O [Enalapril maleate],-0.37
2,CO/N=C(\C(=O)N[C@@H]1C(=O)N2C(C(=O)O)=C(C[N+]3(C)CCCC3)CS[C@H]12)c1csc(N)n1 [Cefepime hydrochloride],1.23
3,CC(Oc1ccccc1)C(=O)N[C@@H]1C(=O)N2[C@@H]1SC(C)(C)[C@@H]2C(=O)O (some centres not stated) [Phenethicillin potassium salt],-0.124
4,N[C@@H](C(=O)N[C@@H]1C(=O)N2C(C(=O)O)=C(Cl)CS[C@H]12)c1ccccc1 [Cefaclor],-1.14
5,COc1ccc(C(=O)NCc2ccc(OCCN(C)C)cc2)cc1OC [Itopride],0.00768
6,O=C1c2ccccc2S(=O)(=O)N1CCCCN1CCN(c2ncccn2)CC1 [Ipsapirone],-1.27
7,Cn1c([N+](=O)[O-])cnc1COC(N)=O [Ronidazole],0.493
8,CN(C)[C@@H]1C(O)=C(C(N)=O)C(=O)[C@@]2(O)C(O)=C3C(=O)c4c(O)ccc(Cl)c4[C@@H](O)[C@H]3C[C@@H]12 [Demeclocycline hydrochloride],-0.545
9,c1ccc2c(c1)CCCc1cc(NCCN3CCOCC3)nnc1-2,0.596
10,Nc1cc(-c2ccncc2)c[nH]c1=O [Amrinone],-1.04
11,CC(N)C12CC3CC(CC(C3)C1)C2 (configuration not stated) [Rimantadine],0.81
12,CCC(=O)OCC(=O)[C@@]1(OC(=O)CC)[C@H](C)C[C@H]2[C@H]3[C@H]([C@@H](O)C[C@@]21C)[C@@]1(C)C=CC(=O)C=C1C[C@H]3Cl [Alclometasone dipropionate],0.153
13,CN(CCOc1ccc(CC2SC(=O)NC2=O)cc1)c1ccccn1 (configuration not stated) [Rosiglitazone],0.148
14,CCCc1nc(C(C)(C)O)c(C(=O)O)n1Cc1ccc(-c2ccccc2-c2nnn[nH]2)cc1 [Olmesartan],0.428
15,"OC(CCN1CCCCC1)(c1ccccc1)C1CCCCC1 (configuration not stated) [Trihexyphenidyl-D,L Hydrochloride]",0.542
16,N=C(N)N/N=C/c1c(Cl)cccc1Cl [Guanabenz acetate],-0.191
17,CN(C)CCOC(=O)COc1ccc(Cl)cc1 [Meclofenoxate hydrochloride],1.72
18,CCOc1ccc(NC(C)=O)cc1 [Phenacetin],0.432
19,CN1CCC[C@@H]1CCO[C@](C)(c1ccccc1)c1ccc(Cl)cc1 [Clemastine fumarate],3.19
20,COc1cc2ncnc(Nc3ccc(F)c(Cl)c3)c2cc1OCCCN1CCOCC1 [Gefitinib],4.1
21,CC(C(=O)O)c1ccc(C(=O)c2cccs2)cc1 (configuration not stated) [Suprofen],-0.437
22,CCCCC[C@H](O)/C=C/[C@H]1[C@H](O)CC(=O)[C@@H]1CCCCCCC(=O)O [Alprostadil],-0.663
23,CCN1CCC[C@H]1CNC(=O)c1c(O)c(Cl)cc(Cl)c1OC [Raclopride],0.156
24,NCc1ccc(S(N)(=O)=O)cc1 [Mafenide hydrochloride],1.19
25,CN[C@@H]1[C@H](O[C@H]2[C@H](O[C@H]3[C@H](O)[C@@H](O)[C@H](NC(=N)N)[C@@H](O)[C@@H]3NC(=N)N)O[C@@H](C)[C@]2(O)CO)O[C@@H](CO)[C@H](O)[C@H]1O [Dihydrostreptomycin sulfate],0.972

# 3 structures from above, arranged by length of the SMILES, descending:
row,SMILES,perinuclear lysosome accumulation
5,COc1ccc(C(=O)NCc2ccc(OCCN(C)C)cc2)cc1OC [Itopride],0.00768
21,CC(C(=O)O)c1ccc(C(=O)c2cccs2)cc1 (configuration not stated) [Suprofen],-0.437
11,CC(N)C12CC3CC(CC(C3)C1)C2 (configuration not stated) [Rimantadine],0.81
